Results are given in words; binding and its absence hold for the method and conditions named. In cells and extracts the contact can be indirect. Some entries that bind do so weakly or less than the wild type.

Chains of the proteins cited; added tags and fusions are not shown. Lines headed by an entry give the natural chain unless they say otherwise; changes in a name come on top.
UniProt P04198: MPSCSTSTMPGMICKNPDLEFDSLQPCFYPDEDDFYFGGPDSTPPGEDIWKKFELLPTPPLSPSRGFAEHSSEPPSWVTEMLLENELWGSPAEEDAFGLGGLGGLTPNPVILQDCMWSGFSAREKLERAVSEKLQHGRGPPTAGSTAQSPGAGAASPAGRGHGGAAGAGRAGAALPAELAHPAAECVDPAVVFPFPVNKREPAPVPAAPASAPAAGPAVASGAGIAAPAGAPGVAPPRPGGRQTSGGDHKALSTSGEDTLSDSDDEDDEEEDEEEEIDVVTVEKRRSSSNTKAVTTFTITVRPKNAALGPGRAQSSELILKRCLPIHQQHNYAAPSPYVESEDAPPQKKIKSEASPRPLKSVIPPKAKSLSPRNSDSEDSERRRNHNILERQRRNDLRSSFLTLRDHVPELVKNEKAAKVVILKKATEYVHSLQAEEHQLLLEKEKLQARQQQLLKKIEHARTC
UniProt P61244: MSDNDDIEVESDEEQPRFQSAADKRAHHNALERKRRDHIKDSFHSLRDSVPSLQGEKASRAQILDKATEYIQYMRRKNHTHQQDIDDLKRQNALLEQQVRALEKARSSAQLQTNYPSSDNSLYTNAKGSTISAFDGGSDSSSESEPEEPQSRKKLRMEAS

Consider three substances from PMC8543820.

In test [1] the target is HA-N-MYC (wild-type) (human) (UniProt P04198). The test can be described thus: co-IP; immunoprecipitates of HA-N-MYC from stably transfected HEK293 pSB-ETiE-HA-MYCN-WT or -P44L lysates for the PTM analysis (RIPA buffer); immunoblot for MAX. (In western blotting, separated proteins are transferred to a membrane and probed.)
The target in test [2] is HA-N-MYC-P44L (human) (UniProt P04198). The test is described as above.
In test [3] the target is HA-N-MYC (wild-type) (human) (UniProt P04198). The test can be described thus: co-IP; HEK293 transiently transfected with tagged expression vectors, doxycycline 48 h; lysis in 20 mM HEPES pH 7.9, 180 mM NaCl, 1.5 mM MgCl2, 10% glycerol, 0.2% Nonidet P40, benzonase; IP with HA-coupled magnetic beads or FLAG-coupled agarose beads at 4 °C; Western blot.
Test [4] has as its target HA-N-MYC-P44L (human) (UniProt P04198). The test is described as above.

With “MAX (endogenous) (from UniProt P61244 1-160)”, the binding result (in test [1]; with HA-N-MYC-P44L (human) [2]) was “binds” each time. “FLAG-MAX (wild-type) (from UniProt P61244 1-160)”: the binding result (in test [3]; with HA-N-MYC-P44L (human) [4]) was “binds” in each case. For the substance “FLAG-MAX-R60Q (from UniProt P61244 1-160)”, in test [3], the binding result is recorded as “binds”.
